Test results reported in US12187814B1, “Stapled antimicrobial peptide” (KING SAUD UNIVERSITY, priority 2024, dated 2025).
Like-named read-outs stand apart in the source and are kept apart here. At least one structure is not confirmed: it was looked up by name or label, or the drawing left a doubt.

Test system: MRSA

Measured: MIC 96-well plate result (growth), replicates 1-3

NC[C@H]1O[C@H](O[C@H]2[C@H](O)[C@@H](O[C@H]3O[C@H](CO)[C@@H](O)[C@H](N)[C@H]3O)[C@H](N)C[C@@H]2N)[C@H](O)[C@@H](O)[C@@H]1O [Kanamycin, reference compound]
Growth: Kanamycin 0.15625 μg/ml (row G) | Kanamycin 0.3125 μg/ml (row F) | Kanamycin 0.625 μg/ml (row E) | Kanamycin 1.25 μg/ml (row D)
